Results as given in the supplement of paper PMC10849652.
This is one part of the list.

Chains of the proteins cited; added tags and fusions are not shown. Lines headed by an entry give the natural chain unless they say otherwise; changes in a name come on top.
UniProt Q9NXE4: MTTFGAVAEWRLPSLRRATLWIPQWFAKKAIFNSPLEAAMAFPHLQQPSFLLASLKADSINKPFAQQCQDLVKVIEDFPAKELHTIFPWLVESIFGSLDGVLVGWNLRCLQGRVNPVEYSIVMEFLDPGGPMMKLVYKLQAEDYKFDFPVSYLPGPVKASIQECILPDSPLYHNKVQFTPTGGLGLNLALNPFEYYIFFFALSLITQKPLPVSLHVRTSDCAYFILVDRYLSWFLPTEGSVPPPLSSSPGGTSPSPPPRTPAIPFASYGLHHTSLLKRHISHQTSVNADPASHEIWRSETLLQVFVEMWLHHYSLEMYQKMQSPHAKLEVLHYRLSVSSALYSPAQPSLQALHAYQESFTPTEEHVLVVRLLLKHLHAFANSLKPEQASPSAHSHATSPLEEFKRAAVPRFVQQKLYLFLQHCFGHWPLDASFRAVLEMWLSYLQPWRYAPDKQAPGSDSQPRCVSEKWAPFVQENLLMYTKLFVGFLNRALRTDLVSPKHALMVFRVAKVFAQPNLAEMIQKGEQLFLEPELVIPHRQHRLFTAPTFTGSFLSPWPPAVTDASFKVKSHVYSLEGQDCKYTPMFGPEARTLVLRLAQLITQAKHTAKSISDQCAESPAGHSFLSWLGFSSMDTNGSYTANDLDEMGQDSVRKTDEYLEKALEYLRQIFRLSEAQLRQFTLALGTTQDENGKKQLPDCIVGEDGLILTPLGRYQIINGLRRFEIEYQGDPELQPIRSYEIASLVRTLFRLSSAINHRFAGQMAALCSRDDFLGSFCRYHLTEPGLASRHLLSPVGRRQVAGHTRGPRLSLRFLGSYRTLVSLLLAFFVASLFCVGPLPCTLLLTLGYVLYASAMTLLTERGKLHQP
UniProt Q02447: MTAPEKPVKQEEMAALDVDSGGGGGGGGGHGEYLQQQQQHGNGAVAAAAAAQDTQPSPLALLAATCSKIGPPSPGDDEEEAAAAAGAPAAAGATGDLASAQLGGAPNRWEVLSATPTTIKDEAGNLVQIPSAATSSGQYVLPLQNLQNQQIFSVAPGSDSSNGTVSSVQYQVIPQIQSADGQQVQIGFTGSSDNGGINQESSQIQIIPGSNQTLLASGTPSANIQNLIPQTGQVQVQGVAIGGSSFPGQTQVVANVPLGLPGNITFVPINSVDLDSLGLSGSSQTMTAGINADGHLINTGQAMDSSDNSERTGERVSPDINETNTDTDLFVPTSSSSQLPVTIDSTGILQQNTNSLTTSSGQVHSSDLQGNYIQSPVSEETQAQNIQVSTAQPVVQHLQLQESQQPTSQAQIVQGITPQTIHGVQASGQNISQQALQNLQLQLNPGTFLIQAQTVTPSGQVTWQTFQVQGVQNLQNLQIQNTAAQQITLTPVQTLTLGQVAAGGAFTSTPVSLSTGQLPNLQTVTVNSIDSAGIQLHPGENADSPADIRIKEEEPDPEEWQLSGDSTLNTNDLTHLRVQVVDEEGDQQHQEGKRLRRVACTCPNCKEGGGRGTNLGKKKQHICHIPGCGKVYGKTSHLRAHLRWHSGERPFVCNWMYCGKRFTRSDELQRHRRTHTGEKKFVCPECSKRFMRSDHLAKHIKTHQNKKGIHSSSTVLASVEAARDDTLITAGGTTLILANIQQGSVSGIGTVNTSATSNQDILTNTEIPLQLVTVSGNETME
UniProt Q969G3, whole entry, looked up: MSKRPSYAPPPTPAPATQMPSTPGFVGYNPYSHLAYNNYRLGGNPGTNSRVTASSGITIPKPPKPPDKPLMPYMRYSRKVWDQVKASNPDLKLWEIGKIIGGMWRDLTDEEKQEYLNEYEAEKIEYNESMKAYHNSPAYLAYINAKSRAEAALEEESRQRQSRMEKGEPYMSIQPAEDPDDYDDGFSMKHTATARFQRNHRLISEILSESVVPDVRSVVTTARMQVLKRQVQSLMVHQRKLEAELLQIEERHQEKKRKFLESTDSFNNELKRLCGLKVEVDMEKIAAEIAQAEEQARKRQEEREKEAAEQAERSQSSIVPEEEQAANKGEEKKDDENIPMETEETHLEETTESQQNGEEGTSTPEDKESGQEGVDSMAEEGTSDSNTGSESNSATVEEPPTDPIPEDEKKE
UniProt O60264, whole entry, looked up: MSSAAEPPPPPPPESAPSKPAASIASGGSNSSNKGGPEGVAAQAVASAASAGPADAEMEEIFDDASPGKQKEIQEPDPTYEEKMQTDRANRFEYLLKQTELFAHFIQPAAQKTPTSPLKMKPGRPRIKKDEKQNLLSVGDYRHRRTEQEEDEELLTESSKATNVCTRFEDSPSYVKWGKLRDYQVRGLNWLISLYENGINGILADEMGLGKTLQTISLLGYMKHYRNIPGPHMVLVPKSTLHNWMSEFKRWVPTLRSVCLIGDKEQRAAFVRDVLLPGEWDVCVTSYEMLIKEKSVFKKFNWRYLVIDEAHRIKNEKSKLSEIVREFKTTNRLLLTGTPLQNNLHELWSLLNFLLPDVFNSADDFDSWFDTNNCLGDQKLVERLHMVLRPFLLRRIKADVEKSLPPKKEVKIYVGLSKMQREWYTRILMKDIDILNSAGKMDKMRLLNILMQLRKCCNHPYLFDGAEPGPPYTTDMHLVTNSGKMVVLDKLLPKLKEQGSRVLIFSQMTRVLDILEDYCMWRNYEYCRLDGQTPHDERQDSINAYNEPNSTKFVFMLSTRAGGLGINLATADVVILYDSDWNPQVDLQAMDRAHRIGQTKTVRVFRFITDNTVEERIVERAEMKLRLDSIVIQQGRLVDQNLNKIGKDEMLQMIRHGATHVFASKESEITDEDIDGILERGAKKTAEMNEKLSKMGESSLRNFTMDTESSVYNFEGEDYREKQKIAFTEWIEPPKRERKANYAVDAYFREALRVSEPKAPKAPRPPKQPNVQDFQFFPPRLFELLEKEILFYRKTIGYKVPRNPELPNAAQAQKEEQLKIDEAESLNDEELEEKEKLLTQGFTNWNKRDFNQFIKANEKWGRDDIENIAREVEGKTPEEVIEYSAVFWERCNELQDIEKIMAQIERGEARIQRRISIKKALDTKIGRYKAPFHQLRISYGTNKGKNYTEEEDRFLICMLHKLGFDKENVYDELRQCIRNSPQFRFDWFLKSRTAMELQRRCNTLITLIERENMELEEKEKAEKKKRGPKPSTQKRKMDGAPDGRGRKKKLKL
UniProt P51532, whole entry, looked up: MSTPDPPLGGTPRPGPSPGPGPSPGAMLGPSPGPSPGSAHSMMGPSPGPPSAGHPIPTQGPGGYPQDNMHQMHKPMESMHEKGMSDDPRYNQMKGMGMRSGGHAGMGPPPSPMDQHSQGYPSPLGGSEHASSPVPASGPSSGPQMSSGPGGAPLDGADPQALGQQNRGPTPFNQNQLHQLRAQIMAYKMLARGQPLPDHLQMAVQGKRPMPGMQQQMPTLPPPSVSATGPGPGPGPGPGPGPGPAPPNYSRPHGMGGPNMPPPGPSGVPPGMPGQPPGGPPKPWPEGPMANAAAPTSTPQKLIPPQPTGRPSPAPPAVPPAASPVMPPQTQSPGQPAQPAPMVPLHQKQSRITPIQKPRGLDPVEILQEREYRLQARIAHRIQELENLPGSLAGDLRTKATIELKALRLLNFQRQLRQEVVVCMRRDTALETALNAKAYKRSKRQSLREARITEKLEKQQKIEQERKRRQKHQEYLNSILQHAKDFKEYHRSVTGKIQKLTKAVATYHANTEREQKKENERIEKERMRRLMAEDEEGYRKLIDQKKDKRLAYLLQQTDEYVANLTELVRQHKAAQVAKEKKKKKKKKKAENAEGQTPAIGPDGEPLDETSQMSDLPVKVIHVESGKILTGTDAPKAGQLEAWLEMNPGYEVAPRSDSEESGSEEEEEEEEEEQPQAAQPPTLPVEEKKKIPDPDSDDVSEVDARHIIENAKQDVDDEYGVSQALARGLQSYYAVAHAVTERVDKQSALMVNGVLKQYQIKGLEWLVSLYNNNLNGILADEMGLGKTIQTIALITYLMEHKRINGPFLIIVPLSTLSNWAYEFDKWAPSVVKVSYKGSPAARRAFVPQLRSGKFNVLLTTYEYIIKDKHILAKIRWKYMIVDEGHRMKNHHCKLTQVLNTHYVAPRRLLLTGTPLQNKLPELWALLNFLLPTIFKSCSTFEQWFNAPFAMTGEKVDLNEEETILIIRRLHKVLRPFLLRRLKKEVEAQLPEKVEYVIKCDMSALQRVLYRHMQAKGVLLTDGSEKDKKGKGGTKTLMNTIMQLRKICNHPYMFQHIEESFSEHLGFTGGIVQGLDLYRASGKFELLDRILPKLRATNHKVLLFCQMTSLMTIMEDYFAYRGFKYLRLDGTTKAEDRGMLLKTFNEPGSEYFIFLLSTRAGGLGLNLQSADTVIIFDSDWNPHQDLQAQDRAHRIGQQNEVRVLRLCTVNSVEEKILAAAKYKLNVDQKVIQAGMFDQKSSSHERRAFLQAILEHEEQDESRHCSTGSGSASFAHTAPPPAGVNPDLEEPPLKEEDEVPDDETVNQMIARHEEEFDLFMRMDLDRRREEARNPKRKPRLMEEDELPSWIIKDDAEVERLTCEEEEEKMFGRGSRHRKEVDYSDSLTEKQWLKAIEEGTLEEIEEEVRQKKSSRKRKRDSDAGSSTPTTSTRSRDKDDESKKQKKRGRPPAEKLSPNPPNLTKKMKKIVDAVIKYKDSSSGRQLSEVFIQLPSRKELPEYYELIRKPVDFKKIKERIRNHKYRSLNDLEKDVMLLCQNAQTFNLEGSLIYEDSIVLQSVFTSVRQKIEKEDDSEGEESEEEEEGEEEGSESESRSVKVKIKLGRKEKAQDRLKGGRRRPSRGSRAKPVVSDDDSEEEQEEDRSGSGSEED
UniProt Q13596, whole entry, looked up: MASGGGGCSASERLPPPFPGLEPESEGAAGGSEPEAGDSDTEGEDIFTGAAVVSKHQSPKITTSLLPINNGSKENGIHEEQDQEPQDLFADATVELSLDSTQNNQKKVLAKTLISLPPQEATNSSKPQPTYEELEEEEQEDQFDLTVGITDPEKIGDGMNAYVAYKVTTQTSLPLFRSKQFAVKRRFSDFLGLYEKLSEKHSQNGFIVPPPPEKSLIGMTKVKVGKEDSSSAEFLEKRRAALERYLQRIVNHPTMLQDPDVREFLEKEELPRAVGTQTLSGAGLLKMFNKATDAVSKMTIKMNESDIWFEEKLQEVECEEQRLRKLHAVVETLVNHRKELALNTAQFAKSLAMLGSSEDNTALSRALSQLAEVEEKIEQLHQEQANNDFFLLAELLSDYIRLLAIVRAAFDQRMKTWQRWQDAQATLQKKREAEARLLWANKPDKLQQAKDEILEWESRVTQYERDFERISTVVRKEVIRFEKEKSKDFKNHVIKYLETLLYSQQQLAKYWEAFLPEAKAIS
UniProt Q8WU79: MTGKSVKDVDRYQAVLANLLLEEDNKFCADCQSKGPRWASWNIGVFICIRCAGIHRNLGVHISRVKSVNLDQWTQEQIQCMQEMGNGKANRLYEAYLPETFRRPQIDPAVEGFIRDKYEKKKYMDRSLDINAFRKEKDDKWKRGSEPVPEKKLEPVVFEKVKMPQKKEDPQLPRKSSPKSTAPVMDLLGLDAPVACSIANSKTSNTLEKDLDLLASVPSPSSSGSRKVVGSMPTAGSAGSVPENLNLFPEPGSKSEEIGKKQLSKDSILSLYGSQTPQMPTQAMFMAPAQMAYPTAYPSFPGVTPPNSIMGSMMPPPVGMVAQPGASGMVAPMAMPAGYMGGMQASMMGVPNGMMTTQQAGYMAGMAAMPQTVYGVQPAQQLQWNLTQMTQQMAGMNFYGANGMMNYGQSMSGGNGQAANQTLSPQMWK
UniProt Q9Y5X3: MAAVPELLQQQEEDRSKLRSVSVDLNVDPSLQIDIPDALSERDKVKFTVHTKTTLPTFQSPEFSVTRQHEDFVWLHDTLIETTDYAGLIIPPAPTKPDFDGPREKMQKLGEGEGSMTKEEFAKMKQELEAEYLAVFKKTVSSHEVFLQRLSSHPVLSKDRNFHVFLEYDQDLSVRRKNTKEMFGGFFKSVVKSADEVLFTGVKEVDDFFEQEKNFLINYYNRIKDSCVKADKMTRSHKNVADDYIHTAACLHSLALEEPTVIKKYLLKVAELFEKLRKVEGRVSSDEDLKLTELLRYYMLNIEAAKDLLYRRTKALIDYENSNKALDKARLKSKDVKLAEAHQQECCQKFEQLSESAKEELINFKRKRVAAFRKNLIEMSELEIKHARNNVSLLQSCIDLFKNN
UniProt P84022, whole entry, looked up: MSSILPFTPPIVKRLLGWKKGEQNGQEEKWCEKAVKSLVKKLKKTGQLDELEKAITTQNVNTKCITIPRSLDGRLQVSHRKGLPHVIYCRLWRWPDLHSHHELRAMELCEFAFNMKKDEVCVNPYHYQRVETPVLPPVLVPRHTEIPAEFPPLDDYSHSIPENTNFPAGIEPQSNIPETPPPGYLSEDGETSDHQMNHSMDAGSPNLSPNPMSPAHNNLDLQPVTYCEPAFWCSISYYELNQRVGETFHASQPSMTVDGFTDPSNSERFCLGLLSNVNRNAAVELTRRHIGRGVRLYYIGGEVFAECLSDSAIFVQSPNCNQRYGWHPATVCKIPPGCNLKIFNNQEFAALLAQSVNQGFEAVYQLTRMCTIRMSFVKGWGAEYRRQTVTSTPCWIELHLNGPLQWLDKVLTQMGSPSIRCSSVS

Columns and labels:
Test in all cases: log2 fold change, soluble protein after heating vs DMSO (PISA); higher = thermal stabilisation; K562 cells, 10 uM, 30 min; active = over 0.2 and 3.5 SD of the protein, either way, in both replicates (recomputed)
saracatinib = compound: CN1CCN(CCOc2cc(OC3CCOCC3)c3c(Nc4c(Cl)ccc5c4OCO5)ncnc3c2)CC1 [saracatinib]
Procedure, shortened: (§1)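 For each measurement, 10 μM compound was applied for 30 min to K562 cells at 2×10^6 cells/mL. Aliquots were heated for 3 min across 48°C-58°C, pooled, and extracted in PBS with 0.5% NP-40 at 4°C; the supernatant after 21,000xg for 90 min was soluble protein. This was quantified by TMTpro 16plex LC-MS/MS with channel sums equalised, and thermal stability was reported relative to control samples from duplicates, on a log2 fold-change scale.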

sotrastaurin = compound: CN1CCN(c2nc(C3=C(c4c[nH]c5ccccc45)C(=O)NC3=O)c3ccccc3n2)CC1 [sotrastaurin]
Procedure, shortened: as §1

Tubastatin A = compound: CN1CCc2c(c3ccccc3n2Cc2ccc(C(=O)NO)cc2)C1 [Tubastatin A]
Procedure, shortened: as §1

[1] = compound: CNC(=O)C1=CC=CC=C1NC2=NC(=NC=C2Cl)NC3=C(C=C(C=C3)N4CCOCC4)OC
Procedure, shortened: as §1

defactinib = compound: CNC(=O)c1ccc(Nc2ncc(C(F)(F)F)c(NCc3nccnc3N(C)S(C)(=O)=O)n2)cc1 [defactinib]
Procedure, shortened: as §1

rucaparib = compound: CNCc1ccc(-c2[nH]c3cc(F)cc4c3c2CCNC4=O)cc1 [rucaparib]
Procedure, shortened: as §1

[2] = compound: CNc1nc(-c2ccc3c(N)n[nH]c3c2)cc(N2C[C@@H](C(=O)NC3CCCCC3)CC[C@H]2C)n1
Procedure, shortened: as §1

encorafenib = compound: COC(=O)N[C@@H](C)CNc1nccc(-c2cn(C(C)C)nc2-c2cc(Cl)cc(NS(C)(=O)=O)c2F)n1 [encorafenib]
Procedure, shortened: as §1

[3] = compound: COC(=O)[C@H](CCSC)NC(=O)C1=C(C=C(C=C1)NC[C@H](CS)N)C2=CC=CC=C2
Procedure, shortened: as §1

alvocidib = compound: CN1CC[C@H](c2c(O)cc(O)c3c(=O)cc(-c4ccccc4Cl)oc23)[C@H](O)C1 [alvocidib]
Procedure, shortened: as §1

Measured: log2 fold change

SMPD4 isoform 4 (UniProt Q9NXE4)
inactive: saracatinib 0.154 | sotrastaurin -0.082 | Tubastatin A 0.007 | [1] -0.041 | defactinib -0.056 | rucaparib 0.043 | [2] -0.071 | encorafenib -0.081 | [3] 0

SORT1 (UniProt Q99523)
inactive: saracatinib 0.038 | sotrastaurin 0.017 | Tubastatin A -0.011 | [1] 0.017 | defactinib -0.033 | rucaparib 0 | [2] -0.027 | encorafenib -0.017 | [3] 0.014

SP100 isoform 4 (UniProt P23497)
inactive: saracatinib 0.058 | sotrastaurin -0.003 | Tubastatin A -0.015 | [1] 0.018 | defactinib -0.087 | rucaparib -0.065 | [2] -0.092 | encorafenib -0.06 | [3] 0.095

SP3 (UniProt Q02447)
inactive: saracatinib 0.048 | sotrastaurin -0.122 | Tubastatin A -0.205 | [1] -0.032 | defactinib 0.042 | rucaparib -0.004 | [2] -0.05 | encorafenib -0.053 | [3] 0.04

SMARCE1 (UniProt Q969G3)
inactive: saracatinib -0.036 | sotrastaurin -0.204 | Tubastatin A 0.018 | [1] -0.032 | rucaparib -0.016 | [2] 0.023 | encorafenib 0.166 | [3] -0.199
active: defactinib 0.579

SP1 (UniProt P08047)
inactive: saracatinib 0.022 | sotrastaurin 0.016 | Tubastatin A -0.054 | [1] -0.015 | defactinib 0.01 | rucaparib 0.066 | [2] -0.023 | encorafenib -0.019 | [3] 0.025

SMARCA5 (UniProt O60264)
inactive: saracatinib -0.084 | sotrastaurin -0.235 | Tubastatin A 0.082 | [1] 0.038 | defactinib -0.145 | rucaparib 0.035 | [2] 0.065 | encorafenib 0.116 | [3] 0.01

SNRPB2 (UniProt P08579)
inactive: saracatinib 0.079 | sotrastaurin 0.041 | Tubastatin A -0.11 | [1] 0.02 | defactinib 0.193 | rucaparib 0.058 | [2] -0.041 | encorafenib -0.037 | [3] 0.054

SLC7A6OS (UniProt Q96CW6)
inactive: saracatinib 0.14 | sotrastaurin 0.008 | Tubastatin A -0.001 | [1] 0.031 | defactinib -0.144 | rucaparib -0.05 | [2] -0.078 | encorafenib -0.004 | [3] 0.06

SMARCA4 (UniProt P51532)
inactive: saracatinib -0.303 | sotrastaurin -0.086 | [1] -0.17 | defactinib 0.134 | rucaparib 0.099 | [2] -0.091 | encorafenib 0.049 | [3] 0.022

SNAP23 isoform 2 (UniProt O00161)
inactive: saracatinib 0.286 | sotrastaurin 0.104 | Tubastatin A -0.108 | [1] 0.092 | defactinib -0.088 | rucaparib -0.066 | [2] -0.101 | encorafenib 0.104 | [3] 0.071

SON isoform 9 (UniProt P18583)
inactive: saracatinib 0.05 | sotrastaurin -0.042 | Tubastatin A -0.088 | [1] 0.004 | defactinib -0.123 | rucaparib 0.092 | [2] -0.323 | encorafenib -0.103 | [3] -0.012

SNX3 (UniProt O60493)
inactive: saracatinib -0.086 | sotrastaurin 0.038 | Tubastatin A -0.005 | [1] 0.018 | defactinib -0.067 | rucaparib 0.081 | [2] 0.026 | encorafenib 0.194 | [3] -0.079

Two records picked at random from the list so far, as already listed:
SORT1 (UniProt Q99523)
inactive: saracatinib 0.038 | sotrastaurin 0.017 | Tubastatin A -0.011 | [1] 0.017 | defactinib -0.033 | rucaparib 0 | [2] -0.027 | encorafenib -0.017 | [3] 0.014

SNX3 (UniProt O60493)
inactive: saracatinib -0.086 | sotrastaurin 0.038 | Tubastatin A -0.005 | [1] 0.018 | defactinib -0.067 | rucaparib 0.081 | [2] 0.026 | encorafenib 0.194 | [3] -0.079

More records follow:

SLK isoform 2 (UniProt Q9H2G2)
inactive: saracatinib -0.015 | sotrastaurin -0.192 | Tubastatin A 0.025 | [1] 0.079 | defactinib -0.089 | rucaparib 0.048 | [2] 0.02 | encorafenib 0.052 | [3] 0.012

SMAP (UniProt O00193)
inactive: saracatinib -0.035 | sotrastaurin 0.016 | Tubastatin A 0.016 | [1] -0.069 | defactinib -0.001 | rucaparib -0.064 | [2] 0.009 | encorafenib -0.054 | [3] 0.013

SNX1 (UniProt Q13596)
inactive: saracatinib 0.006 | sotrastaurin -0.006 | Tubastatin A -0.021 | [1] -0.112 | defactinib -0.036 | rucaparib -0.023 | [2] 0.028 | encorafenib 0.024 | [3] -0.026

SMCHD1 (UniProt A6NHR9)
inactive: saracatinib -0.238 | sotrastaurin -0.084 | Tubastatin A 0.002 | [1] -0.028 | defactinib -0.45 | rucaparib 0.183 | [2] 0.075 | encorafenib 0.188 | [3] -0.088

SNX2 (UniProt O60749)
inactive: saracatinib 0.006 | sotrastaurin 0.002 | Tubastatin A 0.004 | [1] -0.114 | defactinib -0.068 | rucaparib -0.004 | [2] 0.024 | encorafenib 0 | [3] -0.029

SMARCAD1 isoform 2 (UniProt Q9H4L7)
inactive: saracatinib -0.086 | sotrastaurin -0.043 | Tubastatin A 0.053 | [1] 0.016 | defactinib -0.099 | rucaparib -0.056 | [2] 0.035 | encorafenib 0.029 | [3] -0.023

SOAT1 (UniProt P35610)
inactive: saracatinib 0.026 | sotrastaurin -0.06 | Tubastatin A -0.057 | [1] 0.186 | defactinib -0.053 | rucaparib -0.064 | [2] 0.014 | encorafenib 0.122 | [3] 0.111

SNX9 (UniProt Q9Y5X1)
inactive: saracatinib 0.01 | sotrastaurin -0.064 | Tubastatin A -0.025 | [1] 0.038 | defactinib -0.112 | rucaparib 0.058 | [2] -0.005 | encorafenib 0.049 | [3] 0

SNX12 isoform 1 (UniProt Q9UMY4)
inactive: saracatinib 0.035 | sotrastaurin 0.07 | Tubastatin A 0.013 | [1] 0.059 | defactinib -0.025 | rucaparib -0.025 | [2] -0.028 | encorafenib 0.15 | [3] -0.037

SMAD2 (UniProt Q15796)
inactive: saracatinib 0.001 | sotrastaurin -0.235 | Tubastatin A 0.016 | [1] 0.025 | defactinib -0.142 | rucaparib 0.043 | [2] 0.039 | encorafenib -0.045 | [3] -0.052

SNRNP27 (UniProt Q8WVK2)
inactive: saracatinib -0.071 | sotrastaurin 0.048 | Tubastatin A -0.023 | [1] -0.036 | defactinib 0.015 | rucaparib 0.049 | [2] -0.09 | encorafenib -0.061 | [3] 0.097

SMAP2 (UniProt Q8WU79)
inactive: saracatinib -0.047 | sotrastaurin -0.052 | Tubastatin A 0.029 | [1] 0.107 | defactinib -0.12 | rucaparib 0.114 | [2] -0.026 | encorafenib 0.087 | [3] -0.043

SNX15 (UniProt Q9NRS6)
inactive: saracatinib -0.039 | sotrastaurin -0.048 | Tubastatin A 0.045 | defactinib -0.177 | rucaparib -0.063 | [2] -0.043 | encorafenib 0.098 | [3] 0.025

SNX11 (UniProt Q9Y5W9)
inactive: saracatinib -0.055 | sotrastaurin -0.055 | Tubastatin A -0.014 | [1] 0.011 | defactinib -0.02 | rucaparib -0.001 | [2] 0.055 | encorafenib -0.074 | [3] 0.002

SNX5 (UniProt Q9Y5X3)
inactive: saracatinib 0 | sotrastaurin -0.006 | Tubastatin A -0.013 | [1] -0.117 | defactinib -0.014 | rucaparib -0.054 | [2] 0.012 | encorafenib 0.03 | [3] 0.006

SMAD3 (UniProt P84022)
inactive: saracatinib 0.082 | alvocidib 0.021 | Tubastatin A 0.092 | defactinib -0.187 | [2] 0.078 | [3] 0.119
